AC50 data for 52 compounds are collected here from PubChem BioAssay AID1487 (National Center for Advancing Translational Sciences (NCATS), 2009).

Some of the results follow. Shown are side measurements of this screen, not its main read-out; they come without a call. Compounds called inactive in the main read-out are mostly missing here. Words in brackets tell the shape of the fitted curve; partial curves, single points and poor fits give uncertain potencies.

The nature of this test: qHTS Assay for Modulators of Lamin A Splicing. To be noted: HeLa LMNA splicing GFP/RFP minigene ratio, 48 h. In a few lines:
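S3 HeLa stable clones carrying a lamin A-EGFP splicing minigene plus DsRed2 were seeded at 600 cells/well in Opti-MEM with 2% FBS, pin-dosed and incubated 48 h at 37°C. Acumen cytometry (488 nm) gave the GFP/RFP total-intensity ratio.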
In general terms: In qHTS, concentration-response curves come from the screen itself.

[1] abbreviates: measured here: GFP splicing reporter channel.
[2] abbreviates: measured here: RFP viability control channel.

One may read the AC50 as the concentration at which the activity in the assay is half-maximal. With `Cc1nn(-c2ccc(F)cc2F)c2c1-c1nc(N3CCCC3)ncc1CC2`, the AC50 reads like this: under setting [1], 22.4 µM [rising, single point]; under setting [2], 35.5 µM [rising, single point].
Consider `CCCCN(C)CCCNC(=O)C1CC(=O)N(Cc2ccc(OC)cc2)C1` (configuration not stated), for which the concentration at half-maximal activity (AC50) under setting [2] is 5.62 µM [falling, partial curve, poor fit].
`COc1ccc(N2CCN(c3oc(Cc4ccccc4)nc3C#N)CC2)cc1`: the AC50 by setting is: under setting [1], 35.5 µM [falling, single point]; under setting [2], 35.5 µM [falling, single point].
Consider `Cc1ccc(N2C(S)=C(C#N)C(=O)NC23CCCCC3)cc1`, for which, under setting [1], the AC50 was 2.82 µM [falling, partial curve, poor fit].
As to `CC1CCN(CC(=O)Nc2cccc(C(=O)Nc3cccc(C(F)(F)F)c3)c2)CC1`, under setting [2], the AC50 was 14.1 µM [rising, single point].
Take `CCCNC(=O)c1cnc2c(-c3ccc(OCC)c(OCC)c3)c(C)nn2c1-c1ccccc1`: under setting [1], the AC50 is 0.0447 µM [falling, full curve, poor fit].
For `CCOC(=O)N1CCC(NC(=O)c2cc(C(=O)NCc3cccc(Cl)c3)ccc2CO)CC1`, the concentration at half-maximal activity (AC50) under setting [2] was 14.1 µM [rising, partial curve].
With `COc1cccc(C2CC(=O)C3=C(C2)Nc2ccccc2N(C(=O)CCC(=O)O)C3c2ccc(F)cc2)c1` (configuration not stated), the AC50 under setting [1] was 2 µM [rising, partial curve].
In the case of `CS(=O)(=O)N(CC(=O)N1CCN(c2cccc(Cl)c2)CC1)C1CCCCC1`, the half-maximal activity concentration (AC50) under setting [2] is 14.1 µM [rising, partial curve].
Take `O=C(CNc1ccc(Cl)cc1)NNC(=S)NCc1ccccc1`: the AC50 is 2 µM [falling, partial curve] under setting [1] and 2 µM [falling, partial curve] under setting [2].
As for `CCc1nnc(NC(=O)CC(CN(C)S(=O)(=O)c2ccccc2)c2ccccc2)s1` (configuration not stated), the concentration at half-maximal activity (AC50) under setting [2] is 5.62 µM [rising, single point].
In the case of `Cc1ccc(C)c(OCCN2C(=O)NC3(CCc4ccccc4C3)C2=O)c1` (configuration not stated), the AC50 reads like this: under setting [1], 7.08 µM [rising, partial curve]; under setting [2], 7.94 µM [rising, partial curve].
In the case of `O=[N+]([O-])c1ccc(-c2csc(N3CCc4ccccc4C3)n2)cc1`, under setting [1], the AC50 is 5.62 µM [falling, partial curve, poor fit].
Take `Cc1cc(CN2CCCC(CNC(=O)c3ccc(F)cc3)C2)cc(C)c1O` (configuration not stated): the AC50 under setting [2] is 0.794 µM [falling, full curve, poor fit].
Regarding `COc1ccc2nc(NC(=O)c3cc(S(=O)(=O)N4CCOCC4)ccc3C)sc2c1`, the concentration at half-maximal activity (AC50) under setting [2] is 35.5 µM [rising, single point].
`O=C(CN1CCN(C(=O)c2ccco2)CC1)Nc1ccc(Cl)c(S(=O)(=O)N2CCOCC2)c1`: the half-maximal activity concentration (AC50) under setting [1] is 0.00708 µM [rising, full curve, poor fit].
As to `COc1ccc(/C=C/C(=O)c2ccc(Cl)s2)cc1O`, the AC50 by setting is: under setting [1], 35.5 µM [falling, single point]; under setting [2], 35.5 µM [falling, single point].
For `O=C(NC1CCCc2ccccc21)C1CCN(S(=O)(=O)c2cccc(C(F)(F)F)c2)CC1` (configuration not stated), the concentration at half-maximal activity (AC50) was 10 µM [rising, partial curve] under setting [1] and 17.8 µM [rising, partial curve] under setting [2].
Turning to `N#Cc1nc(COc2cccc(Cl)c2)oc1NCc1ccncc1`, the AC50 by setting is: under setting [1], 12.6 µM [rising, partial curve]; under setting [2], 11.2 µM [rising, single point].
As to `Cc1cc(S(=O)(=O)NCc2ccccc2)ccc1OCC(=O)NCC1CCCO1` (configuration not stated), under setting [2], the AC50 was 2.51 µM [falling, single point].
As to `COc1ccc(CCNc2oc(COc3ccccc3F)nc2C#N)cc1OC`, the AC50 is 10 µM [rising, partial curve] under setting [1] and 14.1 µM [rising, single point] under setting [2].
Take `Cc1ccc(S(=O)(=O)N2CCCC(C(=O)NCc3cccnc3)C2)cc1Cl` (configuration not stated): the AC50 by setting is: under setting [1], 5.01 µM [rising, full curve, poor fit]; under setting [2], 3.98 µM [rising, full curve].
On to `N#C/C(=C\c1ccc(C(=O)O)cc1)c1nc2sc3c(c2c(=O)[nH]1)CCCC3`, for which the AC50 under setting [1] was 0.178 µM [rising, full curve] and the AC50 under setting [2] is 0.0708 µM [rising, full curve, poor fit].
With `Cc1cc(NS(=O)(=O)c2ccc(NC(=S)NC(=O)c3ccc(C(C)(C)C)cc3)cc2)no1`, the concentration at half-maximal activity (AC50) under setting [1] was 4.47 µM [rising, single point].
As for `Cc1ccccc1-c1nc(SCC(=O)N(C)c2ccccc2)c2c(=O)n(C)c(=O)n(C)c2n1`, the concentration at half-maximal activity (AC50) under setting [1] is 5.62 µM [falling, single point].
Take `CCc1c(C)[nH]n(-c2nc(-c3cccc([N+](=O)[O-])c3)cs2)c1=O`: the AC50 under setting [2] is 35.5 µM [rising, single point].
In the case of `Cc1c(/C=N/NC(=O)c2ccccc2O)c2ccccn2c1C(=O)c1ccc(F)cc1`, under setting [1], the AC50 is 12.6 µM [falling, partial curve].
With `CCN(CC)C(=O)Cn1cc(S(=O)(=O)CC(=O)Nc2ccc3c(c2)OCCO3)c2ccccc21`, the half-maximal activity concentration (AC50) under setting [1] is 0.282 µM [rising, partial curve].
Turning to `O=[N+]([O-])c1ccc(NC(=S)N2CCOCC2)cc1`, the AC50 is 12.6 µM [rising, single point] under setting [1] and 14.1 µM [rising, single point] under setting [2].
Turning to `CCOC(=O)c1nnn(CC(=O)N2N=C(c3cc(C)ccc3C)CC2c2ccc(OC)cc2)c1C(=O)OCC` (configuration not stated), the AC50 was 14.1 µM [rising, single point] under setting [1] and 12.6 µM [rising, partial curve] under setting [2].
`COc1cccc(C(=O)Nc2ccc(S(=O)(=O)N(Cc3ccccc3)c3ccccc3)cc2)c1`: the half-maximal activity concentration (AC50) under setting [2] is 0.01 µM [falling, full curve, poor fit].
Consider `O=C(CSc1nnc2scc(-c3ccccc3)n12)Nc1nsc(-c2ccccc2)n1`, for which the AC50 under setting [2] was 14.1 µM [rising, partial curve, poor fit].
As to `COc1ccc(C/C(N)=N/OC(=O)C(c2ccccc2)c2ccccc2)cc1OC`, the AC50 is 1.58 µM [falling, single point] under setting [1] and 0.708 µM [falling, full curve, poor fit] under setting [2].
As to `O=C1c2ccccc2NC(c2ccccn2)N1NS(=O)(=O)c1ccccc1` (configuration not stated), the half-maximal activity concentration (AC50) under setting [2] was 2.82 µM [rising, partial curve, poor fit].
Still for that read-out and setting: the result for `Cc1ccc(NC(=O)c2sc3ncnc(N(C)C4CCCCC4)c3c2C)cc1` reads 6.31 µM [falling, full curve].
For `Cc1cc(C)c(S(=O)(=O)NCCc2csc3nc(-c4ccc(Cl)cc4)nn23)c(C)c1`, the AC50 was 20 µM [falling, partial curve, poor fit] under setting [1] and 22.4 µM [falling, single point] under setting [2].
Regarding `Cc1ccccc1Cn1c(CN2CCC(C(=O)NCCN(C)C)CC2)cc2ccccc21`, the AC50 is 35.5 µM [falling, single point] under setting [1] and 35.5 µM [falling, single point] under setting [2].
`N=C1C(c2nc3ccccc3s2)=C(O)CN1NC(=O)c1c[nH]c2ccccc12`: the concentration at half-maximal activity (AC50) was 0.00355 µM [falling, full curve, poor fit] under setting [1] and 0.00355 µM [falling, full curve, poor fit] under setting [2].
As to `O=C(COC(=O)c1c2c(nc3ccccc13)CCCC2)Nc1ccc2c(c1)OCO2`, the AC50 under setting [2] is 11.2 µM [rising, partial curve].
With `CCN(CCCNC(=O)c1ccc(N2CCCC2=O)cc1)c1cccc(C)c1`, the concentration at half-maximal activity (AC50) is 0.447 µM [rising, full curve, poor fit] under setting [1] and 12.6 µM [rising, partial curve] under setting [2].
Turning to `COc1ccc(CNC(=O)COC(=O)/C=C/c2ccc(Cl)cc2)cc1`, under setting [1], the half-maximal activity concentration (AC50) was 0.00282 µM [falling, full curve].
Turning to `COc1ccc(-c2cc(C(=O)N3CCN(c4ccccn4)CC3)c3ccccc3n2)cc1`, the AC50 was 0.562 µM [falling, full curve] under setting [1] and 0.562 µM [falling, full curve] under setting [2].
On to `Cc1ccccc1NC(=O)CN1C(=O)C(C)(C)c2ccccc21`, for which the AC50 under setting [1] was 35.5 µM [falling, partial curve, poor fit].
Turning to `C=CCN(c1ccccc1OC)S(=O)(=O)c1ccc(Cl)c(C(=O)Nc2ccc(N3CCOCC3)cc2)c1`, under setting [2], the concentration at half-maximal activity (AC50) was 14.1 µM [rising, single point].
Take `CCOC(=O)c1ccccc1NC(=O)CSc1nnc(COc2ccccc2)n1CC`: the AC50 under setting [2] is 7.94 µM [rising, partial curve, poor fit].
For `O=C(Nc1cccc(C(F)(F)F)c1)Nc1ccc(N2CCCC2)c(S(=O)(=O)Nc2ccccc2Cl)c1`, the AC50 was 28.2 µM [falling, single point] under setting [1] and 5.62 µM [rising, single point] under setting [2].
As for `O=C1NCCCc2c1oc1cc(Br)c(O)c(Br)c21`, the concentration at half-maximal activity (AC50) is 11.2 µM [rising, partial curve, poor fit] under setting [1] and 12.6 µM [rising, single point] under setting [2].
For `Cc1nc2cc(NC(=O)N(C)c3ccc4ccccc4c3)ccc2o1`, under setting [2], the AC50 is 17.8 µM [rising, single point].
On to `CCc1c(C)nc2cc(-c3ccc(OC)c(OC)c3)nn2c1N1CCCC1`, for which, under setting [2], the AC50 is 14.1 µM [rising, partial curve, poor fit].
Still for that read-out and setting: the value for `CCN(C(=O)CSc1cc(-c2ccccc2)c2ccc(OC)cc2n1)C1CCS(=O)(=O)C1` (configuration not stated) was 35.5 µM [rising, single point]; that for `Cc1onc(-c2ccccc2Cl)c1C(=O)N(Cc1nc(-c2ccccc2)no1)C1CCCCC1` was 10 µM [rising, partial curve, poor fit].
In the case of `Cc1ccc(C)c(N2CCN(S(=O)(=O)c3ccc4c(c3)oc(=O)n4C)CC2)c1`, under setting [1], the AC50 was 1.78 µM [rising, full curve, poor fit].
